Binding data for two substances are collected here from article PMC5027291, “The NF-YC–RGL2 module integrates GA and ABA signalling to regulate seed germination in Arabidopsis” (Nature Communications, 2016).

The target of the assay is T1, BD-NF-YC9 (Arabidopsis) (UniProt Q8L4B2).
T1 sequence: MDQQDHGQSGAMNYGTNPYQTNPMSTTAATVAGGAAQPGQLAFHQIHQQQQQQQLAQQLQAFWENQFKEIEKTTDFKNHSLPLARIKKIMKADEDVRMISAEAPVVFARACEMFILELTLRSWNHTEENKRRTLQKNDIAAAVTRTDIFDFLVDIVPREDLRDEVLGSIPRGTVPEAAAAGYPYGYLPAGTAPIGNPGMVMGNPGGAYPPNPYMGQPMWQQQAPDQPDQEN
The experiment in a line: two-hybrid; yeast AH109 co-transformed with pGBKT7 bait and pGADT7 prey constructs; growth on SD/-Trp/-Leu/-His/-Ade.

Results are given in words; binding and its absence hold for the method and conditions named. Binding calls can cover weak binding; strength is not graded here. Sequences can lack the tags named with a protein.

For the substance “RGL2ΔD (Arabidopsis) (domain or fragment)”, the binding entry is “binds”.
In the case of “RGL2ΔG (Arabidopsis) (domain or fragment)”, the binding entry was “no binding”.
